This is one part of the list. For part of these data: At the low end of the ranking the order means little.
Legend:
Settings in all cases: 10 mM Tris-Cl pH 7.5, 50 mM NaCl, 1 mM DTT, 0.25 mg/ml BSA, 2 mM MgCl2, 0.025% Nonidet P-40, 5% glycerol; 28 nM nucleosome library; 10 min on ice then 30 min …; high values mean tight binding; double strand, one strand shown
KLF4 + histone octamer = test: EMSA with sequencing
OCT4 + histone octamer = test: EMSA with sequencing
SOX2 + histone octamer [1] = test: EMSA with sequencing
[2] = tested on: c-MYC + MAX + histone octamer; test: EMSA with sequencing
[3] = tested on: c-MYC + MAX + histone octamer; test: Pioneer-seq (competitive nucleosome EMSA with sequencing)
SOX2 + histone octamer [4] = test: as above

GATGGACCCTATACGCGGCAGACAACTGTCACTAGGTCGTGTTTTCCCAAAGGAACTTCAGATGATTCTAACACCTCAATTTGCATGGTGCAATTCAATGTGAGAGTCAGAGTGGTACCACTCCTAACTCTACTTTTGCACTTAAAACTGTCCAAGTTCCACCCACAGTCAGCAACAAAGGTGTGTACTTGTCCCTAGTGTGTGGAACAATGCCAGTCGGATAGTGTTCC
binding signal (log2 relative supershift) (KLF4 + histone octamer): 1.04
binding signal (log2 relative supershift) (OCT4 + histone octamer): 0.56
binding signal (log2 relative supershift) (SOX2 + histone octamer [1]): 1.67
binding signal (log2 relative supershift) [2]: 0.238

GATGGACCCTATACGCGGCTGCAATCACAAAATTATAGAAAGGGAGGGCAGATGAGTGGTTGCCCCTGGTTAAAGAGTGGGTGGGGCAGGGAGGAAGTAGGTCTCGCTGTAAAAGAGCAAAGTGAGAAATGCTTCACCATATCAATGTCAGCATCCTTGGGCCGATATTGTACTCTAATTTTGCAAGATGTTATCATTGGGAGAAACTGGTGCCAGTCGGATAGTGTTCC
binding signal (log2 relative supershift) (KLF4 + histone octamer): 1.85
binding signal (log2 relative supershift) (OCT4 + histone octamer): 0.337
binding signal (log2 relative supershift) (SOX2 + histone octamer [1]): 0.817
binding signal (log2 relative supershift) [3]: -0.0927

GATGGACCCTATACGCGGCCCCTTAGCTCACAACATTGACAAACATTAACTCAAAATGGATCACAGATCTAAATACACTCACACTTCCTCCCATCCCCAATCATGCACTGCATGTGTTGCAAAACAATGCTGGTCTATGATGGATAGCATATGTGACTGTGGTCCCATAACATTAAAATGGAGCTGAAAAATTCCTGCCACCTAGTGACGTGCCAGTCGGATAGTGTTCC
binding signal (log2 relative supershift) (KLF4 + histone octamer): 0.797
binding signal (log2 relative supershift) (OCT4 + histone octamer): 0.268
binding signal (log2 relative supershift) (SOX2 + histone octamer [1]): 0.303
binding signal (log2 relative supershift) [3]: -0.0204

GATGGACCCTATACGCGGCTAAGGAGGGGCTAGGGTGTGTCTTGGGGCAGAGCAAGAAAGAGACGTCCATCCACGTGGATAAAGACACACACAGACACACGATGGGCTTTGTCACACACAATGGTCTGTACTTTGTGACACACACCTCTACTCACCACACCCAGACACCGAAGGACACTCCACAGCCCAAGACGGAGACTAACACACCAGTGCCAGTCGGATAGTGTTCC
binding signal (log2 relative supershift) (KLF4 + histone octamer): 2.52
binding signal (log2 relative supershift) (OCT4 + histone octamer): 0.158
binding signal (log2 relative supershift) [2]: 1.16
binding signal (log2 relative supershift) (SOX2 + histone octamer [4]): -0.205

GATGGACCCTATACGCGGCAGAAAAGAATTTTTAAAAGCTGTTACGAGGTGGGGAAAAGCCAGTTGCAGAACAATACATACAGTATGATTCTAATTATGTGAAAAGAAACCACCCACGCTCTAAGGGGTGTGCACATGAATGATATGAGTCAGAGGATGTGTGAAAAGAGGTTGACAGTGTCTGCTCTATAAGCTTTGATTTTTAAGAATTGCCAGTCGGATAGTGTTCC
binding signal (log2 relative supershift) (KLF4 + histone octamer): 1.33
binding signal (log2 relative supershift) (OCT4 + histone octamer): 0.0689
binding signal (log2 relative supershift) (SOX2 + histone octamer [1]): 0.844
binding signal (log2 relative supershift) [3]: -0.205

GATGGACCCTATACGCGGCACACACATATTGATACAGGCACACATGCATATTCAAACAGGCACACACAGGTGTATTCACAAAGGCACACATATGCACATACATTCACAGACAGGCACACACATTCACACAGGCATACACATGCAGACACACATTCACATATGCACACACAGGCACACACACGCATATGCACACAGACACACATATTCATATGCCAGTCGGATAGTGTTCC
binding signal (log2 relative supershift) (KLF4 + histone octamer): 0.678
binding signal (log2 relative supershift) (OCT4 + histone octamer): 0.795
binding signal (log2 relative supershift) (SOX2 + histone octamer [4]): -1.67

GATGGACCCTATACGCGGCTTTGTGATCTTGAGGAGGATAATAATGCATTCAATGATGAAACATAAGGAGGCAGCCTGAGAGGCGGATTAAAGGGAAGGGCTTCGAATGAGAATGCTACACACAAGCCCAAATCTGCTACTTAGCATATGTTTGTGGGCAAGTTACTGTTCCTCTCTGCTATTACCCTTTATCCCATGCAAAATTGAGATTGCCAGTCGGATAGTGTTCC
binding signal (log2 relative supershift) (KLF4 + histone octamer): 0.9
binding signal (log2 relative supershift) (OCT4 + histone octamer): 0.609
binding signal (log2 relative supershift) (SOX2 + histone octamer [1]): 1.41
binding signal (log2 relative supershift) [3]: -0.28

GATGGACCCTATACGCGGCCATTTTGCAGTTAAATATGTTTTACCATCTACCACAGGCAATCATCTTCAATAAAAAGCAATGGTTATGCACATGGGAGGGGCTTCAGGGCTCCCACCCGAAAGGCATTAGCTACCAAGGATGTGGGGTGTTTGTGGTGTGTGTGTAGGGGTGGAGGGATAGAAACGTCTGGAGGCACGGGGGTGGAGGGGTGCCAGTCGGATAGTGTTCC
binding signal (log2 relative supershift) (KLF4 + histone octamer): 2.32
binding signal (log2 relative supershift) (OCT4 + histone octamer): 0.651
binding signal (log2 relative supershift) [2]: 0.372
binding signal (log2 relative supershift) (SOX2 + histone octamer [4]): -0.668

GATGGACCCTATACGCGGCTGAGCCTGCAGACAATGCAAGTCATTCAGGTCGCTCTTTTTTTCTGGGAAGAGCTTGCTATCAGCTAGGTGACAGGGTGGTCAGGACACATGTCTTTCATTCTCCAGCAGGCTAGCCCGGTCATGTTCACATGGTGGTGGCACCTGTTCGAGAGGGTTAAAAGGCCATTTCTAGGCATTAAATATTCAAGTTGCCAGTCGGATAGTGTTCC
binding signal (log2 relative supershift) (KLF4 + histone octamer): 0.516
binding signal (log2 relative supershift) (OCT4 + histone octamer): 0.295
binding signal (log2 relative supershift) (SOX2 + histone octamer [1]): 1.74
binding signal (log2 relative supershift) [3]: -0.145

GATGGACCCTATACGCGGCAGAGAATAAACAAACCATGGTTCTGAAATTTGGTAATACACGTCTCTTTGTGAAACCCATGGATTCCCCACCCGAAGCACATGGGCAAGGCACACACAATTTTATGCACATTTCTTGGGGGCATGGACTTTATAAAGCCTATCCATGGACACCTAGGTTGAGAATCTGTGCTCTTCTGGGCCTTTAAAGGGTGCCAGTCGGATAGTGTTCC
binding signal (log2 relative supershift) (KLF4 + histone octamer): 1.7
binding signal (log2 relative supershift) (OCT4 + histone octamer): 0.585
binding signal (log2 relative supershift) (SOX2 + histone octamer [1]): 1.26
binding signal (log2 relative supershift) [2]: 0.293
